The list shows a part of the results.
B1: il10ra_site1_sap_17_mot_HHH_b1_04015_af2_000000074_0001_1_17_H_._HHH_b1_08117_af2_0001_0000600044_0000002_0_0001 (protein)
chain: SSSSSDEELEERIEELLRELEQITDPKEFIKVALEALRLIYELQDPELLRELWEIIKKNSSSSSS
B2: il10ra_site1_normal_mot_HHH_b2_03425_000000200_0001_22_39_H_._HHH_b1_00050_0001_0000100011_0000001_0 (protein)
chain: SSSSDLEERAEELIEELEKLQKEGDAEEVYRVAREVIEVAIEGGNEELLRLVMELLQEFFSSSSS
B3: il10ra_site1_sap_18_mot_HHH_b2_07873_af2_000000172_0001_1_19_H_._HHH_b2_00184_0001_0000400011_0000001_0_0001 (protein)
chain: SSSSDENQRALELSLEAFRVALRGNPEEAEKILEEAKEIAEEAGNERLVELIENLLETVRSSSSS
B4: il10ra_site1_normal_mot_HHH_b2_03801_000000188_0001_20_36_H_._HHH_b1_01557_0001_0000600034_0000001_0_af2pred_dldesign_0_af2pred (protein)
chain: SSSSSNKQIARDTAQRLLDAAKQMDDLEARRRALEYALALAEAINDEELIAEIRALLAELSSSSS
B5: il10ra_site1_sap_22_mot_HHH_b1_01247_af2_000000274_0001_1_19_H_._HHH_b2_07811_0001_0000500029_0000001_0_0001 (protein)
chain: SSSSDTHEVYKLSREAAELLAEGDPEQAEEVLEEAIELAEKLNSPVFRFALERMLKAVRERSSSS
B6: il10ra_site1_normal_mot_HHH_b1_03613_af2_000000245_0001_1_20_H_._HHH_b2_08139_0001_0000100005_0000001_0 (protein)
chain: SSSSSDELYEIVRRAIEEARELSKRDPEEAKEVLERALEVAEENNNFAARFSLEHLARALSSSSS
B7: il10ra_site1_normal_mot_HHH_b2_00277_af2_000000172_0001_1_17_H_._HHH_b1_06426_0001_0000300016_0000001_0 (protein)
chain: SSSSDEEVREILEEAEEATERGDEEKARELVLEAAAVAARLGDPHLSFLVIEVYARIHQYHSSSS
B8: il10ra_site1_sap_16_mot_HHH_b2_04251_af2_000000037_0001_42_56_H_._HHH_b1_00525_0001_0000300039_0000002_0_0001 (protein)
chain: SSSSDREEEIVRKIVEELGLSESIKHFLEWAARLLLEAGLSEEEVEERLKEMAERQARQDSSSSS
B9: il10ra_site1_normal_mot_HHH_b1_04100_af2_000000180_0001_1_19_H_._HHH_b2_02144_0001_0000500038_0000001_0 (protein)
chain: SSSSSDEEEVQRYVELALRFAELVEDERTRRFLLEAAKQMAELLNDPELRRLIEEVEEELSSSSS
B10: il10ra_site1_sap_23_mot_HHH_b2_01705_af2_000000069_0001_44_57_H_._HHH_b2_06012_0001_0000500032_0000003_0_0001 (protein)
chain: SSSSSKEEAEQLLVEAMELRNEGNPEEAKEVAEEALKLAEEGGDRATAWLIEQLLRALELSSSSS
B11: il10ra_site1_sap_19_mot_HHH_b1_03314_af2_000000278_0001_42_55_H_._HHH_b1_08751_0001_0000900020_0000001_0_0001 (protein)
chain: SSSSDERQEALRLHQEAFRLLLRGNPEEAERILERAEELARESGDERLLKMIEDLLKAHKSSSSS
B12: il10ra_site1_sap_26_mot_HHH_b1_06912_af2_000000235_0001_1_15_H_._HHH_b1_00301_af2_0001_0000600049_0000002_0_0001 (protein)
chain: SSSSDEAEEELERLLREIEEAIKEGDPEKVLRLLLEALRFAYRAGDEEALRELWELAKRIASSSS
B13: il10ra_site1_normal_mot_HHH_b1_06789_af2_000000041_0001_1_20_H_._HHH_b2_03756_0001_0000300018_0000002_0_af2pred_0001 (protein)
chain: SSSSDAERDVRIALKLAELAAEQGDEELVEKLLELAEHQARLSGDPELEELVEEVARKLTSSSSS
B14: il10ra_site1_sap_18_mot_HHH_b2_05343_000000235_0001_19_35_H_._HHH_b2_01840_0001_0000100007_0000001_0_0001 (protein)
chain: SSSSSSDLEEIFEEAERLAEERNNPAAAFLIRQAYKAIRLSGDPHARRNLEAFLRLLGSSSSSSS
B15: il10ra_site1_normal_mot_HHH_b2_03438_af2_000000049_0001_18_34_H_._HHH_b2_07194_0001_0000100001_0000001_0 (protein)
chain: SSSSSDEELEEEVERLLEEAERVDLEEAYELLREAAKLAHELNDEELSQLIQKVLRRILESSSSS
B16: il10ra_site1_normal_mot_HHH_b1_01731_af2_000000210_0001_41_56_H_._HHH_b1_07175_0001_0000300014_0000001_0_af2pred_0001 (protein)
chain: SSSSDKEELQFVLRVIRKLAKEFNLSDEQLRELAELALELLKQGVSPEEIEELLEKLAEELSSSS
B17: il10ra_site1_sap_21_mot_HHH_b1_03763_000000278_0001_22_38_H_._HHH_b1_05915_0001_0000800032_0000001_0_0001_af2pred_dldesign_0_af2pred (protein)
chain: SAEEEVENIIRYTAEAAGIPRVEVRVEDGRVTVTCEGSAEAHERVRLAAEAAGERIGWETVVTAR
B18: il10ra_site1_sap_27_mot_HHH_b1_03094_000000294_0001_1_20_H_._HHH_b1_03221_af2_0001_0000100004_0000001_0_0001_af2pred_dldesign_0_af2pred (protein)
chain: SSSSSEEEAERLKAELRAAIAAGDVEAAVALLRELTRLAWELGNSEVIQEIKELAKEILAVSSSS
B19: il10ra_site1_normal_mot_HHH_b2_00984_000000042_0001_1_20_H_._HHH_b1_04863_af2_0001_0000500015_0000001_0 (protein)
chain: SSSSSDEEEELEELLEQLKKALEENDRELVAQLARRLVQLAFRLSDPEALQEAWELIRLLSSSSS
B20: il10ra_site1_sap_16_mot_HHH_b2_00612_000000251_0001_1_14_H_._HHH_b2_07853_0001_0000200011_0000001_0_0001 (protein)
chain: SSSSSQEEVHLRALLFFAREALRAGDPHAARLMLEKAEELAEELGTPLVELVRELLEELNSSSSS
B21: il10ra_site1_sap_16_mot_HHH_b1_05357_000000034_0001_23_39_H_._HHH_b2_03504_0001_0000300018_0000001_0_0001 (protein)
chain: SSSSDEEEEELRELLERVEELLERGDPRRAARVAQELLRLIYQLSDEEALQKLWRLMKKYGSSSS
B22: il10ra_site1_normal_mot_HHH_b2_00612_000000251_0001_1_14_H_._HHH_b1_02085_0002_0000300016_0000002_0_af2pred_0001 (protein)
chain: SSSSDNAEFARKLAEEIQRLLEEGNEEEAEELLEEAKRILEELGDELTVRAIEYFFKAAKGSSSS
B23: il10ra_site1_sap_17_mot_HHH_b2_02537_000000065_0001_1_20_H_._HHH_b1_01889_0001_0000300022_0000002_0_0001 (protein)
chain: SEQLAELQLRSMGDPEMLKDAVRNIAELAQEGDPVARRAFEALEEVLRKLGDPELLEILEEVHER
B24: il10ra_site1_normal_mot_HHH_b1_00682_000000211_0001_1_20_H_._HHH_b2_01840_0001_0000300033_0000002_0_af2pred_dldesign_0_af2pred (protein)
chain: SSSSDVRAEIRRLLEEAKKLKEAGKPDEAYKLLKKAVELAGEVEDPELQQLVRDEARKLISSSSS
B25: il10ra_site1_normal_mot_e1dd4851c59bc1cdde016f988f6856bd_0001_1_000000200_0001_16_31_H_._HEEHE_2766_af2_0001_0000400024_0000001_0 (protein)
chain: DEAERVALAVERAARLAGVPSVTVEVHNGEVHVELEGTDQSVREAEIMAEFQARAANVKITIETK
B26: il10ra_site1_sap_15_mot_HHH_b2_03328_af2_000000127_0001_1_19_H_._HHH_b1_07969_0001_0000500014_0000001_0_0001 (protein)
chain: SSSSSLYEKVKKAIEELIELLRNGNPEEARELAEEMLREVEEAGNWAAWFSLRLLLEQINSSSSS
B27: il10ra_site1_sap_15_mot_HHH_b2_00230_000000227_0001_1_19_H_._HHH_b1_00399_0001_0000100015_0000001_0_0001_af2pred_0001 (protein)
chain: SSSSSSEEVERAARQLFRAIREISDEEKVKLALKDMRASAEFTNDPEIHELVRELEELFSSSSSS
B28: il10ra_site1_normal_mot_HHH_b2_08186_000000021_0001_43_56_H_._HHH_b1_08356_0001_0000100003_0000001_0 (protein)
chain: SSSSSEEEERIEELIEEIERLIEEGNPEEALELLLEALRLAFRANNPELLQELWELLQRLASSSS
B29: il10ra_site1_sap_24_mot_3af0db62db2b275566dae2e03bf881fa_0001_000000003_0001_37_50_H_._HHH_b1_08478_af2_0001_0000200007_0000002_0_0001 (protein)
chain: SSSSSSDVEEEVEELLEEAKQIDDDRELTRLLAEAVRLAFRANDPELLREVWRVIKELSSSSSSS
B30: il10ra_site1_sap_18_mot_HHH_b1_03763_000000209_0001_22_38_H_._HHH_b1_03243_0001_0000100003_0000002_0_0001_af2pred_0001 (protein)
chain: SSSSDDEKKVRLALRFAKRLEEDGDPEAARFILEAALEIAKRGGNPELEEEVQEILERLRSSSSS
B31: il10ra_site1_sap_17_mot_HHH_b1_04905_af2_000000228_0001_1_17_H_._d19391ccd5e4f9f9722e25c964c800ff_0001_af2_0001_0000500019_0000001_0_0001 (protein)
chain: SSSSSDEEEAEERVRELLEEAEHIEDREEVAELFKEALRIAIQVNDPELLQEVWEAFKRLSSSSS
B32: il10ra_site1_normal_mot_8756ee2cf497b5429c717dfc0c0bcfd6_0001_000000186_0001_1_13_H_._HHH_b1_05396_af2_0001_0000500018_0000002_0 (protein)
chain: SSSSDEHERAFELLREVAELHFEGDEEELEELLEEAEKIAQEANNDVILVQLEYLKRLLESSSSS
B33: il10ra_site1_sap_14_mot_HHH_b1_04592_af2_000000261_0001_39_52_H_._HHH_b2_04904_0001_0000200005_0000001_0_0001 (protein)
chain: SSSSDLEEKVEQTLRFVKWLIEVGDEKAAERFLRVAERLAKEAGDPELEERVEELERELKSSSSS
B34: il10ra_site1_sap_16_mot_HHH_b2_08144_af2_000000046_0001_38_52_H_._HHH_b2_08331_0001_0000200020_0000002_0_0001 (protein)
chain: SSSSNAAEYLVRQALRAARLAKENNDPELVKRALEIAERIAENANDPELKELVEEVEEELESSSS
B35: il10ra_site1_sap_25_mot_HHH_b1_03763_000000209_0001_22_38_H_._HHH_b2_07522_0001_0000500082_0000001_0_0001 (protein)
chain: SSSSSEREEVWELLKEALELRAEGNPEEAEKVLERAREIAEELGSQLFEIIIKMLQEAIEQSSSS
B36: il10ra_site1_sap_21_mot_HHH_b2_00984_000000042_0001_1_20_H_._HHH_b2_04376_0001_0000300040_0000001_0_0001 (protein)
chain: SSSSSDFEEVYELSREAVELDSDGNPEEARKVLEEAQEIAEELGDQLMRRQLEHLEKVVNSSSSS
B37: il10ra_site1_sap_29_mot_HHH_b2_02354_af2_000000157_0001_40_56_H_._ems_3hM_2942_af2_0001_0000100002_0000002_1_0001_af2pred_0001 (protein)
chain: SSSSTAEEDVRLAIAAAELALKAGDPEKARRALEIAKLIARQGNNPELEEELEELEEEINSSSSS

Molecular target: il10ra, Q13651
Test: yeast display titration

Apparent Kd, inactive:
B1 no binding seen
B2 no binding seen
B3 no binding seen
B4 no binding seen
B5 no binding seen
B6 no binding seen
B7 no binding seen
B8 no binding seen
B9 no binding seen
B10 no binding seen
B11 no binding seen
B12 no binding seen
B13 no binding seen
B14 no binding seen
B15 no binding seen
B16 no binding seen
B17 no binding seen
B18 no binding seen
B19 no binding seen
B20 no binding seen
B21 no binding seen
B22 no binding seen
B23 no binding seen
B24 no binding seen
B25 no binding seen
B26 no binding seen
B27 no binding seen
B28 no binding seen
B29 no binding seen
B30 no binding seen
B31 no binding seen
B32 no binding seen
B33 no binding seen
B34 no binding seen
B35 no binding seen
B36 no binding seen
B37 > 1500 nM

Looked up one by one from above (2):
Apparent Kd, inactive:
B18 no binding seen
B23 no binding seen

— publication PMC10163288
